Assay results reported in publication PMC6499814.

Amino acid sequences for entries named in this document (tags omitted).
UniProt Q9Y3D6: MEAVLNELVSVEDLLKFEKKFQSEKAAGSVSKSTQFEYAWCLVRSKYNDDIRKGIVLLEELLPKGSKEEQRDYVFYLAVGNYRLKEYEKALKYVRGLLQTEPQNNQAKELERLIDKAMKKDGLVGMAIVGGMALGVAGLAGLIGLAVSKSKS
UniProt P56962: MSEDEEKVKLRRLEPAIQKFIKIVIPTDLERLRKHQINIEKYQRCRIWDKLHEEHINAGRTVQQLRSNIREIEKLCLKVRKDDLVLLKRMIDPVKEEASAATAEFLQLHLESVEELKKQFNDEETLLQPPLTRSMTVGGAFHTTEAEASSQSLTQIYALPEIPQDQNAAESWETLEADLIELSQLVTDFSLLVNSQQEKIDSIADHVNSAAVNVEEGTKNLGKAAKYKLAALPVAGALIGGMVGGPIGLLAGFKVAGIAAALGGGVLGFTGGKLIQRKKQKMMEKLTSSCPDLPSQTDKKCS

Molecular target: Flag-tagged Fis1 (mitochondrial fission 1 protein) (UniProt Q9Y3D6)
Experiment: affinity purification with mass spectrometry; HeLa cells transfected with Flag vector or Flag-Fis1 for 24 h; IP with anti-Flag beads; Coomassie-stained bands 1 and 2 analysed by mass spectrometry

binding: binds
Substance: Syntaxin 17 (STX17), endogenous (from UniProt P56962 1-302)

No constants are given. Whether binding was seen depends on the method and setting. Binding seen in cells or lysates may run through a third protein. Here binding means that the protein was enriched with, or labelled near, the bait; the list need not be complete.
